Laboratory results as given in the supplement of paper PMC5355238.
Where “and” joins values, the source holds several entries; their conditions need not be identical. Identical values can stand only once. Counter-ions that a name gives are not always drawn. This is one part of the list. Most entries show no effect beyond the scatter of the controls.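 Reh, a human leukemia cell line, is read out by flow cytometry as the median γH2AX antibody signal in S-phase cells; the score counts standard deviations from the median difference of each paired plate set. Scores above 2.5 were candidate hits; scores below -2 mark compounds lowering MK1775-induced damage.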

test system: Reh; test: Z' of S-phase gammaH2AX difference (drug + MK1775 minus drug alone) (Z-score); higher = stronger synergistic S-phase DNA damage with MK1775; conditions: MK1775 concentration 400 nM; first compound 10 µM; 4 h

SMILES	Z' of S-phase gammaH2AX difference (Z-score)
NCC=CC(=O)O (stereo in doubt) [cis-4-Aminocrotonic acid] + C=CCn1c(=O)c2cnc(Nc3ccc(N4CCN(C)CC4)cc3)nc2n1-c1cccc(C(C)(C)O)n1 [MK1775]	inactive: -0.0601
CC(=O)[C@H]1CC[C@H]2[C@@H]3CC=C4C[C@@H](OS(=O)(=O)O)CC[C@]4(C)[C@H]3CC[C@]12C [Pregnenolone sulfate sodium] + C=CCn1c(=O)c2cnc(Nc3ccc(N4CCN(C)CC4)cc3)nc2n1-c1cccc(C(C)(C)O)n1 [MK1775]	inactive: 1.8
N#C/C(=C\c1ccc(O)c(O)c1)C(=O)c1ccc(O)c(O)c1 [Tyrphostin AG 538] + C=CCn1c(=O)c2cnc(Nc3ccc(N4CCN(C)CC4)cc3)nc2n1-c1cccc(C(C)(C)O)n1 [MK1775]	inactive: 0.449
NC12CC3CC(CC(C3)C1)C2 [Amantadine hydrochloride] + C=CCn1c(=O)c2cnc(Nc3ccc(N4CCN(C)CC4)cc3)nc2n1-c1cccc(C(C)(C)O)n1 [MK1775]	inactive: -0.2
CC1(C2CCCC2)Cc2cc(OCC(=O)O)c(Cl)c(Cl)c2C1=O (configuration not stated) + C=CCn1c(=O)c2cnc(Nc3ccc(N4CCN(C)CC4)cc3)nc2n1-c1cccc(C(C)(C)O)n1 [MK1775]	inactive: 0.556
CCOC(=O)[C@]12CC1/C(=N\O)c1ccccc1O2 (some centres not stated) + C=CCn1c(=O)c2cnc(Nc3ccc(N4CCN(C)CC4)cc3)nc2n1-c1cccc(C(C)(C)O)n1 [MK1775]	inactive: -0.234
NCCCCNCCCN [Spermidine trihydrochloride] + C=CCn1c(=O)c2cnc(Nc3ccc(N4CCN(C)CC4)cc3)nc2n1-c1cccc(C(C)(C)O)n1 [MK1775]	inactive: 0.0951
Nc1ncn([C@H]2C[C@H](O)[C@@H](CO)O2)c(=O)n1 [Decitabine] + C=CCn1c(=O)c2cnc(Nc3ccc(N4CCN(C)CC4)cc3)nc2n1-c1cccc(C(C)(C)O)n1 [MK1775]	inactive: 0.415
O=C(Cc1ccc(-c2ccc(OCCN3CCOCC3)cc2)cn1)NCc1ccccc1 + C=CCn1c(=O)c2cnc(Nc3ccc(N4CCN(C)CC4)cc3)nc2n1-c1cccc(C(C)(C)O)n1 [MK1775]	inactive: 0.0909
N[C@H](CO)C(=O)O [D-Serine] + C=CCn1c(=O)c2cnc(Nc3ccc(N4CCN(C)CC4)cc3)nc2n1-c1cccc(C(C)(C)O)n1 [MK1775]	inactive: -0.502
NC(Cc1cccc(-c2ccccc2CP(=O)(O)O)c1)C(=O)O (stereo not drawn) [Phenylbenzene-omega-phosphono-alpha-amino acid] + C=CCn1c(=O)c2cnc(Nc3ccc(N4CCN(C)CC4)cc3)nc2n1-c1cccc(C(C)(C)O)n1 [MK1775]	inactive: 0.204
O=S(=O)(c1cccc2cnccc12)N1CCNCC1 + C=CCn1c(=O)c2cnc(Nc3ccc(N4CCN(C)CC4)cc3)nc2n1-c1cccc(C(C)(C)O)n1 [MK1775]	inactive: 1.67
CCN[C@H]1C[C@H](C)S(=O)(=O)c2sc(S(N)(=O)=O)cc21 [Dorzolamide HCL] + C=CCn1c(=O)c2cnc(Nc3ccc(N4CCN(C)CC4)cc3)nc2n1-c1cccc(C(C)(C)O)n1 [MK1775]	inactive: 0.412
C[N+](C)(C)CCCCCNCC12CC3CC(CC(C3)C1)C2 + C=CCn1c(=O)c2cnc(Nc3ccc(N4CCN(C)CC4)cc3)nc2n1-c1cccc(C(C)(C)O)n1 [MK1775]	inactive: 1.58
CO[C@@]1(NC(=O)CSCC#N)C(=O)N2C(C(=O)O)=C(CSc3nnnn3C)CS[C@@H]21 [Cefmetazole sodium] + C=CCn1c(=O)c2cnc(Nc3ccc(N4CCN(C)CC4)cc3)nc2n1-c1cccc(C(C)(C)O)n1 [MK1775]	inactive: 1.1
COc1ccc2[nH]c(I)c(CCNC(C)=O)c2c1 [2-Iodomelatonin] + C=CCn1c(=O)c2cnc(Nc3ccc(N4CCN(C)CC4)cc3)nc2n1-c1cccc(C(C)(C)O)n1 [MK1775]	inactive: 0.284
CCOC(=O)C(C)(C)Oc1ccc(Cl)cc1 [Clofibrate] + C=CCn1c(=O)c2cnc(Nc3ccc(N4CCN(C)CC4)cc3)nc2n1-c1cccc(C(C)(C)O)n1 [MK1775]	inactive: 0.301
c1cnc2c(c1)ccc1cccnc12 [1,10-Phenanthroline monohydrate] + C=CCn1c(=O)c2cnc(Nc3ccc(N4CCN(C)CC4)cc3)nc2n1-c1cccc(C(C)(C)O)n1 [MK1775]	inactive: -7.3
CC(C)NC[C@H](O)COc1ccc(CC(N)=O)cc1 [S(-)-Atenolol] + C=CCn1c(=O)c2cnc(Nc3ccc(N4CCN(C)CC4)cc3)nc2n1-c1cccc(C(C)(C)O)n1 [MK1775]	inactive: -0.0501

SMILES	Z' of S-phase gammaH2AX difference (Z-score)
CCC(NC(C)C)C(O)c1ccc(O)c(O)c1 (configuration not stated) [Isotharine mesylate] + C=CCn1c(=O)c2cnc(Nc3ccc(N4CCN(C)CC4)cc3)nc2n1-c1cccc(C(C)(C)O)n1 [MK1775]	inactive: 0.377
C[C@H](NC(=O)Cc1cc(F)cc(F)c1)C(=O)N[C@H](C(=O)OC(C)(C)C)c1ccccc1 + C=CCn1c(=O)c2cnc(Nc3ccc(N4CCN(C)CC4)cc3)nc2n1-c1cccc(C(C)(C)O)n1 [MK1775]	inactive: -0.0333
CN1CCc2cccc3c2[C@H]1Cc1ccc(O)c(O)c1-3 [Apomorphine hydrochloride hemihydrate] + C=CCn1c(=O)c2cnc(Nc3ccc(N4CCN(C)CC4)cc3)nc2n1-c1cccc(C(C)(C)O)n1 [MK1775]	inactive: 0.15
COCC[n+]1c2c(n(Cc3cnccn3)c1C)C(=O)c1ccccc1C2=O + C=CCn1c(=O)c2cnc(Nc3ccc(N4CCN(C)CC4)cc3)nc2n1-c1cccc(C(C)(C)O)n1 [MK1775]	inactive: -1.25
Nc1ncnc2c1c(-c1ccc(Oc3ccccc3)cc1)cn2C1CCCC1 + C=CCn1c(=O)c2cnc(Nc3ccc(N4CCN(C)CC4)cc3)nc2n1-c1cccc(C(C)(C)O)n1 [MK1775]	inactive: -0.527
C[C@@H]1CCN(C(=O)CC#N)C[C@@H]1N(C)c1ncnc2[nH]ccc12 + C=CCn1c(=O)c2cnc(Nc3ccc(N4CCN(C)CC4)cc3)nc2n1-c1cccc(C(C)(C)O)n1 [MK1775]	inactive: 0.15 and inactive: 0.984
Nc1nc2ccc(Cl)cc2c2nc(-c3ccco3)nn12 + C=CCn1c(=O)c2cnc(Nc3ccc(N4CCN(C)CC4)cc3)nc2n1-c1cccc(C(C)(C)O)n1 [MK1775]	inactive: 0.605
COc1cc2c(cc1C(F)(F)F)N(C(=O)Nc1cc(F)cc(-c3cccnc3)c1)CC2 + C=CCn1c(=O)c2cnc(Nc3ccc(N4CCN(C)CC4)cc3)nc2n1-c1cccc(C(C)(C)O)n1 [MK1775]	inactive: 0.819
CCC(C)N(C)C(=O)c1cc2ccccc2c(-c2ccccc2Cl)n1 (configuration not stated) + C=CCn1c(=O)c2cnc(Nc3ccc(N4CCN(C)CC4)cc3)nc2n1-c1cccc(C(C)(C)O)n1 [MK1775]	inactive: 0.511
COc1ccc(CCN(C)CCCC(C#N)(c2cc(OC)c(OC)c(OC)c2)C(C)C)cc1OC (configuration not stated) [(?)-Methoxyverapamil hydrochloride] + C=CCn1c(=O)c2cnc(Nc3ccc(N4CCN(C)CC4)cc3)nc2n1-c1cccc(C(C)(C)O)n1 [MK1775]	inactive: 0.961
CC[C@H](C)C(=O)O[C@H]1CCC=C2C=C[C@H](C)[C@H](CC[C@@H]3C[C@@H](O)CC(=O)O3)[C@H]21 [Mevastatin] + C=CCn1c(=O)c2cnc(Nc3ccc(N4CCN(C)CC4)cc3)nc2n1-c1cccc(C(C)(C)O)n1 [MK1775]	inactive: 0.184
CCn1cc(C(=O)O)c(=O)c2ccc(Cc3ccccc3)nc21 [Amfonelic acid] + C=CCn1c(=O)c2cnc(Nc3ccc(N4CCN(C)CC4)cc3)nc2n1-c1cccc(C(C)(C)O)n1 [MK1775]	inactive: 2.34
NNc1nncc2ccccc12 [Hydralazine hydrochloride] + C=CCn1c(=O)c2cnc(Nc3ccc(N4CCN(C)CC4)cc3)nc2n1-c1cccc(C(C)(C)O)n1 [MK1775]	inactive: -0.26
C=CC(=O)Nc1cccc(Oc2nc(Nc3ccc(N4CCN(C)CC4)cc3OC)ncc2Cl)c1 + C=CCn1c(=O)c2cnc(Nc3ccc(N4CCN(C)CC4)cc3)nc2n1-c1cccc(C(C)(C)O)n1 [MK1775]	inactive: -0.363
O=C(/C=C/c1ccc(O)c(O)c1)OCCc1ccccc1 [Caffeic acid phenethyl ester] + C=CCn1c(=O)c2cnc(Nc3ccc(N4CCN(C)CC4)cc3)nc2n1-c1cccc(C(C)(C)O)n1 [MK1775]	inactive: 0.692
CN1CCN(CCCN2c3ccccc3Sc3ccc(Cl)cc32)CC1 [Prochlorperazine dimaleate] + C=CCn1c(=O)c2cnc(Nc3ccc(N4CCN(C)CC4)cc3)nc2n1-c1cccc(C(C)(C)O)n1 [MK1775]	inactive: -0.369
CN(C)C[C@@H]1CCn2cc(c3ccccc32)C2=C(C(=O)NC2=O)c2cn(c3ccccc23)CCO1 + C=CCn1c(=O)c2cnc(Nc3ccc(N4CCN(C)CC4)cc3)nc2n1-c1cccc(C(C)(C)O)n1 [MK1775]	inactive: 0.289
Cc1c(C)c2c(c(C)c1O)CCC(C)(CN1CCN(c3cc(N4CCCC4)nc(N4CCCC4)n3)CC1)O2 (configuration not stated) + C=CCn1c(=O)c2cnc(Nc3ccc(N4CCN(C)CC4)cc3)nc2n1-c1cccc(C(C)(C)O)n1 [MK1775]	inactive: 0.475
